# In publication PMC11239676 (2024):
# Protein sequences, listed by entry. Tags and fused reporters are not part of them.
# UniProt P04198: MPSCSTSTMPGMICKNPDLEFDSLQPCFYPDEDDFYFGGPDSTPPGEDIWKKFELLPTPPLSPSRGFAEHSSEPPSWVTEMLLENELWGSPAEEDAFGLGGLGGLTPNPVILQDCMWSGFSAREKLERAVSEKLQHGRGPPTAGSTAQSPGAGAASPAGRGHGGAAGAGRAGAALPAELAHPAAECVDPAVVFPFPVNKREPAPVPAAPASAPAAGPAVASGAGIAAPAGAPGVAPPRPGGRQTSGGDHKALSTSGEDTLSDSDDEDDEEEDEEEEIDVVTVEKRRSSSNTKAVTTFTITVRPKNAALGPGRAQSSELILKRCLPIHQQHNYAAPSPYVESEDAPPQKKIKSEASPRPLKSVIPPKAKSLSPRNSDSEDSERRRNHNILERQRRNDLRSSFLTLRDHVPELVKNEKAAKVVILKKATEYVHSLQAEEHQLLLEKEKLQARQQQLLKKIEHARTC
# UniProt P61244: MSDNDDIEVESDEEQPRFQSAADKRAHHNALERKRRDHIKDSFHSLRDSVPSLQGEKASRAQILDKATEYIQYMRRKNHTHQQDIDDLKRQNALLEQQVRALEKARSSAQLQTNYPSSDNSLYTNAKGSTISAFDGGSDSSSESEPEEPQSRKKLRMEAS
# Results are given in words; binding and its absence hold for the method and conditions named. For part of these data: In cells and extracts the contact can be indirect. Some entries that bind do so weakly or less than the wild type.
# T1: 15N-labelled NHR4 MYND domain of RUNX1T1 (UniProt Q06455 510-559, 15N-labelled)
# T1 chain: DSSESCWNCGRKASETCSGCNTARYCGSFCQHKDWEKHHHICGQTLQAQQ
# How the values were obtained:
# [1] = biological target: MYCN (human (endogenous in KELLY)) (UniProt P04198); test: co-IP; endogenous proteins; 200 µg nuclear protein of KELLY cells with doxycycline-inducible RUNX1T1 shRNA, with and without doxycycline (1 µg/mL, 72 h); anti-MYCN antibody or normal mouse IgG overnight at 4 °C, Protein G agarose; immunoblot
# [2] = biological target: T1, 15N-labelled NHR4 MYND domain of RUNX1T1; test: NMR titration; 15N-HSQC of 60 µM 15N-labelled NHR4 MYND; peptide titrated in steps of 0.5 molar equivalents up to 12; 20 mM Mes, 100 mM NaCl, 120 µM ZnAc, 2 mM TCEP pH 6; 298 K; chemical shift perturbations of three signals fitted to a 1:1 model; both purified
binding [1],binding [2],Molecule
binds,–,MAX (from UniProt P61244 1-160)
–,binds,Ac-LNQPPPPLIRPAN-NH2 [RCOR3_3 peptide (human RCOR3 residues 448-460)]
–,binds,Ac-TISNPPPLISSAK-NH2 [NCOR2 peptide (human NCOR2 residues 1101-1113)]
